Data on eight molecules can be found in publication PMC8632276.

The assay has as its target 3xFLAG-BPLF1 (amino acid residues 1-235), N-terminal domain of the Epstein-Barr virus large tegument protein (Epstein-Barr virus (EBV)) (UniProt P03186). The assay can be described thus: affinity purification with mass spectrometry; tandem mass spectrometry of FLAG immunoprecipitates from cells transfected with FLAG-BPLF1, FLAG-BPLF1[C61A] or FLAG-empty vector; hits absent in duplicate vector samples and detected in both BPLF1 and BPLF1[C61A] immunoprecipitates; data set previously reported (ref. 24).

These are yes or no findings as the source states them, for the method shown. Binding seen in cells or lysates may run through a third protein. Here binding means that the protein was enriched with, or labelled near, the bait; the list need not be complete.

For the molecule PDCD6IP (from UniProt Q8WUM4 1-868), the binding result is on record as “binds”.

Regarding BAG3 (from UniProt O95817 1-575), the binding entry is reported as “binds”.

In the case of PDCD6 (from UniProt O75340 1-191), the binding entry is reported as “binds”.

In the case of GBF1 (from UniProt Q92538 1-1860), the binding entry is “binds”.

On to BAG6 (from UniProt P46379 1-1132), for which the binding entry is recorded as “binds”.

Take ARF4 (from UniProt P18085 1-180): the binding result is on record as “binds”.

For “ANXA11 (annexin A11) (from UniProt P50995 1-505)”, the binding entry is on record as “binds”.

B1: USO1 (protein, UniProt O60763 1-962)
chain: MNFLRGVMGGQSAGPQHTEAETIQKLCDRVASSTLLDDRRNAVRALKSLSKKYRLEVGIQAMEHLIHVLQTDRSDSEIIGYALDTLYNIISNEEEEEVEENSTRQSEDLGSQFTEIFIKQQENVTLLLSLLEEFDFHVRWPGVKLLTSLLKQLGPQVQQIILVSPMGVSRLMDLLADSREVIRNDGVLLLQALTRSNGAIQKIVAFENAFERLLDIISEEGNSDGGIVVEDCLILLQNLLKNNNSNQNFFKEGSYIQRMKPWFEVGDENSGWSAQKVTNLHLMLQLVRVLVSPTNPPGATSSCQKAMFQCGLLQQLCTILMATGVPADILTETINTVSEVIRGCQVNQDYFASVNAPSNPPRPAIVVLLMSMVNERQPFVLRCAVLYCFQCFLYKNQKGQGEIVSTLLPSTIDATGNSVSAGQLLCGGLFSTDSLSNWCAAVALAHALQENATQKEQLLRVQLATSIGNPPVSLLQQCTNILSQGSKIQTRVGLLMLLCTWLSNCPIAVTHFLHNSANVPFLTGQIAENLGEEEQLVQGLCALLLGISIYFNDNSLESYMKEKLKQLIEKRIGKENFIEKLGFISKHELYSRASQKPQPNFPSPEYMIFDHEFTKLVKELEGVITKAIYKSSEEDKKEEEVKKTLEQHDNIVTHYKNMIREQDLQLEELRQQVSTLKCQNEQLQTAVTQQVSQIQQHKDQYNLLKIQLGKDNQHQGSYSEGAQMNGIQPEEIGRLREEIEELKRNQELLQSQLTEKDSMIENMKSSQTSGTNEQSSAIVSARDSEQVAELKQELATLKSQLNSQSVEITKLQTEKQELLQKTEAFAKSVEVQGETETIIATKTTDVEGRLSALLQETKELKNEIKALSEERTAIKEQLDSSNSTIAILQTEKDKLELEITDSKKEQDDLLVLLADQDQKILSLKNKLKDLGHPVEEEDELESGDQEDEDDESEDPGKDLDHI
Regarding B1, the binding result is “binds”.
